Measurements reported in PubChem BioAssay AID1259405 (NCATS, 2018)
Screen: 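Silenced genes that increase secreted GFP made by CHO cells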 (primary screen). Cells: Chinese hamster CHO-K1 ovary cells with stable secreted eGFP expression. Reagent: single siRNA against mouse genes, 0.8 pmol siRNA per well (2 µl of 400 nM stock). Time to read-out: 3 days. Measured: 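Per-well intracellular GFP measured by laser scanning cytometry, plus viability from ATP luminescence, each relative to plate median of non-targeting control wells, in %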. Direction: GFP, % of control: higher = more GFP per well, higher productivity; viability (ATP), % of control: higher = more viable cells (more ATP). Call rule: 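a knock-down is called active if GFP reaches 120% or more of non-targeting control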.
In all, the deposit lists about 50,000 reagents; this is a random part of them. Of all reagents, about 4,000 (8%) got an active call. 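Mouse siRNA library applied to hamster cells; one well for each siRNA.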

no.	gene	PubChem SID	GFP, % of control	viability (ATP), % of control	activity call
1	Serpini2	SID363573133	62.2	59.8	inactive
2	Serpini2	SID363577709	77.7	83.2	inactive
3	Serpini2	SID363581229	52.7	92.7	inactive
4	Ndn	SID363569463	92.8	98.3	inactive
5	Ndn	SID363577207	75.5	56.8	inactive
6	Ndn	SID363578615	72.3	59.1	inactive
7	Grpel1	SID363572583	102	63.2	inactive
8	Grpel1	SID363577863	129	84	active
9	Grpel1	SID363582087	115	164	inactive
10	Man1a2	SID363569978	83.1	113	inactive
11	Man1a2	SID363577018	103	109	inactive
12	Man1a2	SID363578426	54.7	75.2	inactive
13	AU040320	SID363546818	42.9	31.7	inactive
14	AU040320	SID363548574	69.3	69.4	inactive
15	AU040320	SID363560752	52.5	60	inactive
16	Ccbe1	SID363553689	34.2	52.1	inactive
17	Ccbe1	SID363561646	141	75.8	active
18	Ccbe1	SID363565384	34.8	78.2	inactive
19	Cd300c	SID363544135	67.8	72	inactive
20	Cd300c	SID363550463	67.4	78.6	inactive
21	Cd300c	SID363557012	105	103	inactive
22	Enpp5	SID363581723	50.1	44.2	inactive
23	Enpp5	SID363589217	56.6	67.7	inactive
24	Add3	SID363541006	37.7	46.7	inactive
25	Add3	SID363555633	71.3	67.9	inactive
26	Add3	SID363565922	12.6	18.6	inactive
27	Slc9a1	SID363575147	67.5	71.6	inactive
28	Slc9a1	SID363580779	111	91.8	inactive
29	Slc9a1	SID363582891	79.8	75.7	inactive
30	Atp6v1e1	SID363545110	133	109	active
31	Atp6v1e1	SID363548623	70.7	79.2	inactive
32	Atp6v1e1	SID363562429	64.2	47.9	inactive
33	Lime1	SID363543752	97.7	54.1	inactive
34	Lime1	SID363551488	74.9	62.4	inactive
35	Lime1	SID363559093	62.4	69.3	inactive
36	Hmgn1	SID363569479	91.6	73.5	inactive
37	Hmgn1	SID363577223	75.7	82.5	inactive
38	Hmgn1	SID363578631	41.7	58.5	inactive

Records listed so far with an active call:
gene	PubChem SID	GFP, % of control	viability (ATP), % of control	activity call
Grpel1	SID363577863	129	84	active
Ccbe1	SID363561646	141	75.8	active
Atp6v1e1	SID363545110	133	109	active

Additional results follow:
no.	gene	PubChem SID	GFP, % of control	viability (ATP), % of control	activity call
39	Dmrtc1a	SID363542528	35	38.9	inactive
40	Dmrtc1a	SID363552019	66.5	44.5	inactive
41	Dmrtc1a	SID363559624	102	113	inactive
42	Pex3	SID363574844	123	88.8	active
43	Pex3	SID363575900	83.3	99.2	inactive
44	Pex3	SID363580476	109	131	inactive
45	Dynlt1b	SID363541254	91.7	57.1	inactive
46	Dynlt1b	SID363555881	93.3	94.8	inactive
47	Dynlt1b	SID363566170	75.2	73.2	inactive
48	Cpne7	SID363550093	72.5	87	inactive
49	Cpne7	SID363564602	53.6	69.2	inactive
50	Cpne7	SID363588147	98.4	82.2	inactive
51	Fcmr	SID363539903	120	81.8	active
52	Fcmr	SID363561204	108	111	inactive
53	Fcmr	SID363564240	41	30.3	inactive
54	Rragd	SID363541694	72.6	80.9	inactive
55	Rragd	SID363553286	54.2	51.5	inactive
56	Rragd	SID363566610	63.7	70.7	inactive
57	Pkp3	SID363572710	30.6	48	inactive
58	Pkp3	SID363577990	115	136	inactive
59	Pkp3	SID363582214	83.1	126	inactive
